Measured values published in the supplement of paper PMC10849652.
The list shows a part of the results.

The chains behind the UniProt entries cited, without tags or fusion partners. Where a name states a change or a piece, a line headed by the entry shows the natural chain unless it says otherwise.
UniProt Q9NWV4: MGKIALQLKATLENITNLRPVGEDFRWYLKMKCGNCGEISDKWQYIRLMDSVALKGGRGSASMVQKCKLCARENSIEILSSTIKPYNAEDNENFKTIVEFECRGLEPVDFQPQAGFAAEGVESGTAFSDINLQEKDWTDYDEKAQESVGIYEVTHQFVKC
UniProt P99999: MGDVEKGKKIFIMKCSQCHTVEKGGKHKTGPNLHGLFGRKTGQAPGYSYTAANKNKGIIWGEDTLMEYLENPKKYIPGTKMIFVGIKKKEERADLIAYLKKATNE
UniProt Q9BQA9: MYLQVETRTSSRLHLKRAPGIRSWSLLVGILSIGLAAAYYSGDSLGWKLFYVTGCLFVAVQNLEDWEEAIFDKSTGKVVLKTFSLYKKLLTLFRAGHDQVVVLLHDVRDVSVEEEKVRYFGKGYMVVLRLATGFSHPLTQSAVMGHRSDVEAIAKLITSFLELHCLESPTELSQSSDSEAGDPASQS
UniProt Q96EP5: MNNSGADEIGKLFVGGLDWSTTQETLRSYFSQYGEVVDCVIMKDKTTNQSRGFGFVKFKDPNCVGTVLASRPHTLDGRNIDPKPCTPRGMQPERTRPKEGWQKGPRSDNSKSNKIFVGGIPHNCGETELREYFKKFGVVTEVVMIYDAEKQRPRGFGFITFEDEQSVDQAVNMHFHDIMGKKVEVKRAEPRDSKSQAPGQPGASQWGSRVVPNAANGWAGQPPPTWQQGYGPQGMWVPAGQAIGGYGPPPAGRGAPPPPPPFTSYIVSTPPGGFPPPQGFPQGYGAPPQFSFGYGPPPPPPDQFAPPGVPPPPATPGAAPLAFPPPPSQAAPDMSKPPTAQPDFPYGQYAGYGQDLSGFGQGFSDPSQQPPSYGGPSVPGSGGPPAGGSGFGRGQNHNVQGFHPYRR
UniProt Q5QP82: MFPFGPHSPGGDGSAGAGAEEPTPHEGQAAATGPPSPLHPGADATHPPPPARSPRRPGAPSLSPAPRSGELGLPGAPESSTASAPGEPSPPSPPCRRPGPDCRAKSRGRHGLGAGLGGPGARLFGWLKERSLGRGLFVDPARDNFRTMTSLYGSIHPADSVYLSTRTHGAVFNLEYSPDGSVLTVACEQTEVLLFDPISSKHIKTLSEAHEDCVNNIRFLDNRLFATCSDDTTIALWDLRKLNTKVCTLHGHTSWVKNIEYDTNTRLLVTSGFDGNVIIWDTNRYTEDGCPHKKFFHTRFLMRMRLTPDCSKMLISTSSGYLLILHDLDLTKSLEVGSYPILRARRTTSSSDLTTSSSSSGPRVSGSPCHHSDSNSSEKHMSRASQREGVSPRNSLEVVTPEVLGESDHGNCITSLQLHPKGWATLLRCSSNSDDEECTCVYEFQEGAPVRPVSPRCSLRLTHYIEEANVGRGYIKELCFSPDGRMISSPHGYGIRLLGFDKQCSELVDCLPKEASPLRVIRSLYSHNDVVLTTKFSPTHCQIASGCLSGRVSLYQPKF
UniProt P51397: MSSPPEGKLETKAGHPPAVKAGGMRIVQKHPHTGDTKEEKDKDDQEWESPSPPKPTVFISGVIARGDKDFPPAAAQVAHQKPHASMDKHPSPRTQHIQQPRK
UniProt E9PJD7, whole entry, looked up: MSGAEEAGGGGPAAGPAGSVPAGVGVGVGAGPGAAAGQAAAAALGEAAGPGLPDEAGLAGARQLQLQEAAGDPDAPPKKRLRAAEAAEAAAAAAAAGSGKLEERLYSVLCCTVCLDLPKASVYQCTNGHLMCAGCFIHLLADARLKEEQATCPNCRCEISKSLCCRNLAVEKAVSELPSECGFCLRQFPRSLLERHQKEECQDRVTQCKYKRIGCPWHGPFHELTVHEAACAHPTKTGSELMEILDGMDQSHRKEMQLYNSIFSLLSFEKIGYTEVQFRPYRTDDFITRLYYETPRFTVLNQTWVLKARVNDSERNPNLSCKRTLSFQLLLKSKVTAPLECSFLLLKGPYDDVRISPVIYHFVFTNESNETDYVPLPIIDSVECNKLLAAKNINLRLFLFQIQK
UniProt Q8TEB1, whole entry, looked up: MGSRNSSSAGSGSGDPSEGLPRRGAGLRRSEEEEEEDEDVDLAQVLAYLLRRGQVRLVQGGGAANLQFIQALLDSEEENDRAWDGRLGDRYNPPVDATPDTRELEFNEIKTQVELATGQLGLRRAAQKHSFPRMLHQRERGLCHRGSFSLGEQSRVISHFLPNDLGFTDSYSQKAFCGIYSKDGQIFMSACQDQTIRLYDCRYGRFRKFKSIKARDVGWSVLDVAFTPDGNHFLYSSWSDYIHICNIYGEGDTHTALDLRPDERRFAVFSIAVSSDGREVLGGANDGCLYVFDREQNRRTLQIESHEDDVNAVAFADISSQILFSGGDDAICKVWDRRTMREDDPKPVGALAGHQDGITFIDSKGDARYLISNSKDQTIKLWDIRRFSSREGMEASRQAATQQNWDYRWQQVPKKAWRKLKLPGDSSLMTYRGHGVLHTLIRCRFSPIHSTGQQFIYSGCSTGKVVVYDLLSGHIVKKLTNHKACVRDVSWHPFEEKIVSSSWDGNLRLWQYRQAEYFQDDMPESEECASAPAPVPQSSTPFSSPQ
UniProt Q96C57: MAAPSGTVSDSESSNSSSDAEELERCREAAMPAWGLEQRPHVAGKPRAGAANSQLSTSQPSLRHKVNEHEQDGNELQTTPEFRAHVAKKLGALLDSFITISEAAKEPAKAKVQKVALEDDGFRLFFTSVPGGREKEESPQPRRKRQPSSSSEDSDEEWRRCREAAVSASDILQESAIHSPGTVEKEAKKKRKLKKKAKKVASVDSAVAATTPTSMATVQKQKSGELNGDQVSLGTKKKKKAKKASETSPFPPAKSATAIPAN
UniProt P00387: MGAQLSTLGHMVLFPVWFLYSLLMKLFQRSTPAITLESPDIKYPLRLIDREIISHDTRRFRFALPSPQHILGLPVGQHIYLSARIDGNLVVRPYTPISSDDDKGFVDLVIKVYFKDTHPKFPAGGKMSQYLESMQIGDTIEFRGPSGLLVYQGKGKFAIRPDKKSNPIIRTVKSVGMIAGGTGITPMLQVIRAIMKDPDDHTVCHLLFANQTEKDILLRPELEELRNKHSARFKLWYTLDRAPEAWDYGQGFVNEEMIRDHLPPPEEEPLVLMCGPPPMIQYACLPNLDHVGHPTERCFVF
UniProt Q16850: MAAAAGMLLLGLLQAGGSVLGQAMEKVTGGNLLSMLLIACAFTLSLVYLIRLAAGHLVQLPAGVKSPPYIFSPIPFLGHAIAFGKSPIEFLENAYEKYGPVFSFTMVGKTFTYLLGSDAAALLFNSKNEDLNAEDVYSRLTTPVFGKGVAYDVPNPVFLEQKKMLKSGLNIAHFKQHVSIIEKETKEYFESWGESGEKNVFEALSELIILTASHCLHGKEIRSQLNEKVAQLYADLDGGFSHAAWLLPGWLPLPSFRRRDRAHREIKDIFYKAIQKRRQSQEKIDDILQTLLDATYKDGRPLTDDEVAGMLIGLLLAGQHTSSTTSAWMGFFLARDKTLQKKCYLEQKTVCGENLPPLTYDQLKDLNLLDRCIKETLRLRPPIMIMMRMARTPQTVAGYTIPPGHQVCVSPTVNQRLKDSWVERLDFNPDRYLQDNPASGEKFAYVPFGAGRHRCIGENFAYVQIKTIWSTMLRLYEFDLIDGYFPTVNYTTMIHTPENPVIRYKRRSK
UniProt P61803: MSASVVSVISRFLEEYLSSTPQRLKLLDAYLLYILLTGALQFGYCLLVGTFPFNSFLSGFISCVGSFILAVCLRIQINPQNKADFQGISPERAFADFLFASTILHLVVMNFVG
UniProt Q5TAQ9: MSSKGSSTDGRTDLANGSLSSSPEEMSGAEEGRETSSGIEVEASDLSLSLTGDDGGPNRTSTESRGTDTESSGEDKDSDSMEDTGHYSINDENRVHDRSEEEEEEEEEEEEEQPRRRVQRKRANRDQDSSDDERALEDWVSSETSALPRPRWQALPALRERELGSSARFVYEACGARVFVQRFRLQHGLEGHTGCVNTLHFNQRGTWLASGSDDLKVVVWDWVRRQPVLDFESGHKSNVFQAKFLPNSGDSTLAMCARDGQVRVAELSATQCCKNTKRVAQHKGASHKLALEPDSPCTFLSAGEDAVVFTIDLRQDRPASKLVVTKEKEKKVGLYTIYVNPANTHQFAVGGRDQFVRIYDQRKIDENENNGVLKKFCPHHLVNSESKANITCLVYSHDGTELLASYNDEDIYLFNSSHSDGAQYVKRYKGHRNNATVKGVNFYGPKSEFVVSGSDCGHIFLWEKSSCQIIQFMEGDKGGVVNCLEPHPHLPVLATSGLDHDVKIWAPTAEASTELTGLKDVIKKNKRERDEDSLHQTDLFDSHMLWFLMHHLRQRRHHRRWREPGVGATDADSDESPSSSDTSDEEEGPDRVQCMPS
UniProt Q5JQC4: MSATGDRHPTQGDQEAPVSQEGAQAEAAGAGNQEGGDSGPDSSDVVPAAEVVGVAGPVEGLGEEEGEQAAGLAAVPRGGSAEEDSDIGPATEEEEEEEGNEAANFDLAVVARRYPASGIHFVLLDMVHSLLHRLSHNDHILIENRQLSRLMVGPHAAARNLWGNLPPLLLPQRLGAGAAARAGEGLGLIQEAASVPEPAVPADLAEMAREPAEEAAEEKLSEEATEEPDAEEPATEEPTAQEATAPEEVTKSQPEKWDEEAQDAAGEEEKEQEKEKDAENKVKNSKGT
UniProt Q9NV06: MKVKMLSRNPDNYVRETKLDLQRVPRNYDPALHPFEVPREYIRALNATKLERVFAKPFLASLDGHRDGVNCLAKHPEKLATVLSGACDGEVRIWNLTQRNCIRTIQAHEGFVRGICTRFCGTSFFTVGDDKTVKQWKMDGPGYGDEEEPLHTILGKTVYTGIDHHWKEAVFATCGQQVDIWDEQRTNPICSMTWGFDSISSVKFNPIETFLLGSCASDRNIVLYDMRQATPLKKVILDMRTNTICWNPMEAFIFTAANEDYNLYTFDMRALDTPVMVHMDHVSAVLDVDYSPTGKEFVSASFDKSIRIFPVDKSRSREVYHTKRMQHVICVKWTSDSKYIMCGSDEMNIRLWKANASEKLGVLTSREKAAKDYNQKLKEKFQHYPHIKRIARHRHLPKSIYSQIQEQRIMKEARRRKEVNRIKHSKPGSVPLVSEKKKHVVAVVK
UniProt Q13617, whole entry, looked up: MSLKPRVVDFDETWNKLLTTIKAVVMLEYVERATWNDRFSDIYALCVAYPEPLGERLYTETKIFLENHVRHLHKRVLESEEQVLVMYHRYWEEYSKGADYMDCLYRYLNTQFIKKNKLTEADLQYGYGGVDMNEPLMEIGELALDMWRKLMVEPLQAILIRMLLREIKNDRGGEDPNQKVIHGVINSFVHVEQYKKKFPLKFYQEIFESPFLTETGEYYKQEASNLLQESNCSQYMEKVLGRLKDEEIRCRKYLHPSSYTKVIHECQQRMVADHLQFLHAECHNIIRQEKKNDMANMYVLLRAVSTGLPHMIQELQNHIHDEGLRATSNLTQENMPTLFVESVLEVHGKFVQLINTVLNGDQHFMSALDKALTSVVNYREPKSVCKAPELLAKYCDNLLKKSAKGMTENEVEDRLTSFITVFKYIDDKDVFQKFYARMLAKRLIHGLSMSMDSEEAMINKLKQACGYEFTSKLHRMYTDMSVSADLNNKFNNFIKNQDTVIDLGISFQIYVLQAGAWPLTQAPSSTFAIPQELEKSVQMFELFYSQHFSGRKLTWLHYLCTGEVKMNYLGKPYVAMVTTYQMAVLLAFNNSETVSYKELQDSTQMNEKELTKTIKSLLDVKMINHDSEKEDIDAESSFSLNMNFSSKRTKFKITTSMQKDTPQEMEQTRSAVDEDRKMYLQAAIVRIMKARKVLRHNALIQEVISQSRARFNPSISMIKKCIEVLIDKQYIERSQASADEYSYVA
UniProt P98082: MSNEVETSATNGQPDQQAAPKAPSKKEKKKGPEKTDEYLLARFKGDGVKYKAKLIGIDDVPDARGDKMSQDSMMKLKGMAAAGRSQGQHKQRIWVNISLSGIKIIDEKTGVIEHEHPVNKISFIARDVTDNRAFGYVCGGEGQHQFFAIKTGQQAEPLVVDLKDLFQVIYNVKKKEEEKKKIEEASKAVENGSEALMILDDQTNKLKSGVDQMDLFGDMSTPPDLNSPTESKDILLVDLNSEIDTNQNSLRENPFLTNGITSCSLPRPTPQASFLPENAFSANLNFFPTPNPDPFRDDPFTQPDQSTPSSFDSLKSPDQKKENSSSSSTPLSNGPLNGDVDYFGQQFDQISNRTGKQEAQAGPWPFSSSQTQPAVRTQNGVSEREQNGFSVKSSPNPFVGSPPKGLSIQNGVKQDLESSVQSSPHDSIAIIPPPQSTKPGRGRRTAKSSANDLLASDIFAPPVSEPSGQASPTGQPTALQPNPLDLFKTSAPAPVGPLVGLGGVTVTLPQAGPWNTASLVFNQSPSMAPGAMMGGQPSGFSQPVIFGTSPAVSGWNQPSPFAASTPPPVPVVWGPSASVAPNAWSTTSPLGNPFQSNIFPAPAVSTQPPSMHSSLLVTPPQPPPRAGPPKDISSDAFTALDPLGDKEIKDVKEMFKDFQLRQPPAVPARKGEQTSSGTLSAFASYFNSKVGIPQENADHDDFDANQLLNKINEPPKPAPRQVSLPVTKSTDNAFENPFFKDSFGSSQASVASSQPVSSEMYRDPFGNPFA
UniProt Q9H1C7: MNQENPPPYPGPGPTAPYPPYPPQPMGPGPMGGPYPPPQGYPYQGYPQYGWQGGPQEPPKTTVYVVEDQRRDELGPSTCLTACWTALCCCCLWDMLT

Experiments:
Assay in all cases: log2 fold change, soluble protein after heating vs DMSO (PISA); higher = thermal stabilisation; K562 cells, 10 uM, 30 min; active = over 0.2 and 3.5 SD of the protein, either way, in both replicates (recomputed)
[1] = compound: C1=CC=C(C=C1)[C@H](COC2=CC3=C(C=C2)NC(=O)N3)NC(=O)C4=CC=CN(C4=O)CC5=CC(=C(C=C5)F)F
How it was run: (§1)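 Values are thermal stability changes relative to control samples and are taken from duplicates. They are stated as log2 fold changes. Before quantification by TMTpro 16plex LC-MS/MS with equalised channel sums, K562 cells at 2×10^6 cells/mL were treated with 10 μM compound for 30 min, heated in aliquots for 3 min across 48°C-58°C, pooled, extracted in PBS with 0.5% NP-40 at 4°C, and centrifuged at 21,000xg for 90 min to give the soluble supernatant.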

[2] = compound: CC1=C(SC2=C1C(=N[C@H](C3=NN=C(N32)C)CC(=O)N)C4=CC=C(C=C4)Cl)C
How it was run: as §1

[3] = compound: CC1=C2C(=CC=C1)N=C(N(C2=O)C3=CC=CC=C3C)CN4C=NC5=C(N=CN=C54)N
How it was run: as §1

[4] = compound: Cc1sc2c(c1C)C(c1ccc(Cl)cc1)=N[C@@H](CC(=O)OC(C)(C)C)c1nnc(C)n1-2
How it was run: as §1

[5] = compound: c1ccc([C@@H]2C[C@H]2NC2CCNCC2)cc1
How it was run: as §1

Measured: log2 fold change

CUX1 isoform 2 (UniProt Q13948)
inactive: [1] -0.067 | [2] 0.013 | [3] 0 | [4] 0 | [5] 0.023

CZIB (UniProt Q9NWV4)
inactive: [1] 0.011 | [2] 0.016 | [3] 0.027 | [4] -0.009 | [5] 0.029

CYCS (UniProt P99999)
inactive: [1] 0.012 | [2] 0.002 | [3] 0.023 | [4] -0.013 | [5] 0.011

CYBC1 (UniProt Q9BQA9)
inactive: [1] -0.028 | [2] 0.038 | [3] 0.016 | [4] 0.004 | [5] 0.019

DCAKD (UniProt Q8WVC6)
inactive: [1] -0.069 | [2] 0.036 | [3] 0.03 | [4] -0.021 | [5] -0.061

DCAF7 (UniProt P61962)
inactive: [1] 0.003 | [2] -0.152 | [3] 0.047 | [4] 0.016 | [5] 0

CSTF2 (UniProt P33240)
inactive: [1] 0.017 | [2] 0.04 | [3] 0.057 | [4] -0.026 | [5] 0.021

DAZAP1 (UniProt Q96EP5)
inactive: [1] 0 | [2] 0.029 | [3] -0.009 | [4] 0.033 | [5] 0.059

CTSH (UniProt P09668)
inactive: [1] 0 | [2] -0.046 | [3] -0.038 | [4] -0.035 | [5] 0.055

DCK (UniProt P27707)
inactive: [1] 0.015 | [2] 0.046 | [3] -0.04 | [4] -0.031 | [5] 0.011

DCTN1 isoform 4 (UniProt Q14203)
inactive: [1] -0.052 | [2] -0.021 | [3] 0.096 | [4] 0.044 | [5] -0.008

CSRP3 (UniProt P50461)
inactive: [1] -0.067 | [2] -0.038 | [3] -0.04 | [4] -0.01 | [5] 0.034

CYFIP2 (UniProt Q96F07)
inactive: [1] 0.006 | [2] 0.04 | [3] 0.026 | [4] -0.03 | [5] 0.002

CYB561 (UniProt P49447)
inactive: [1] 0.077 | [2] 0.126 | [3] -0.046 | [4] 0.063 | [5] 0.062

DCAF10 (UniProt Q5QP82)
inactive: [1] 0.015 | [2] -0.018 | [3] 0.056 | [4] 0.013 | [5] -0.011

CTPS2 (UniProt Q9NRF8)
inactive: [1] 0.002 | [2] 0.002 | [3] 0.015 | [4] -0.01 | [5] 0.018

CTSZ (UniProt Q9UBR2)
inactive: [1] -0.003 | [2] 0.009 | [3] 0.032 | [4] 0.039 | [5] -0.01

CYFIP1 (UniProt Q7L576)
inactive: [1] 0.009 | [2] 0.005 | [3] -0.009 | [4] -0.005 | [5] -0.029

DAP (UniProt P51397)
inactive: [1] 0.046 | [2] -0.006 | [3] 0.003 | [4] -0.009 | [5] 0.051

CTBP2 isoform 2 (UniProt P56545)
inactive: [1] -0.002 | [2] 0.033 | [3] 0.043 | [4] -0.037 | [5] -0.004

DCTN2 isoform 2 (UniProt Q13561)
inactive: [1] -0.03 | [2] 0.023 | [3] -0.006 | [4] -0.01 | [5] -0.024

CYHR1 (UniProt E9PJD7)
inactive: [1] -0.017 | [2] 0.105 | [3] 0.141 | [4] -0.054 | [5] 0.024

CUL3 (UniProt Q13618)
inactive: [1] -0.018 | [2] 0.05 | [3] 0.034 | [4] -0.017 | [5] -0.011

DCAF11 (UniProt Q8TEB1)
inactive: [1] -0.006 | [2] 0.05 | [3] 0.036 | [4] 0.043 | [5] -0.043

CYBA (UniProt P13498)
inactive: [1] 0.007 | [2] 0.034 | [3] -0.013 | [4] 0.027 | [5] 0.031

CT45A5 (UniProt P0DMU8)
inactive: [1] 0.053 | [2] -0.162 | [3] -0.192 | [4] 0.114 | [5] 0

CSTF1 (UniProt Q05048)
inactive: [1] 0.003 | [2] 0.096 | [3] 0.004 | [4] -0.007 | [5] -0.047

CT55 (UniProt Q8WUE5)
inactive: [1] -0.071 | [2] 0.049 | [3] 0.076 | [4] 0.012 | [5] 0.035

CTNNA2 (UniProt P26232)
inactive: [1] 0.016 | [2] 0.02 | [3] 0.02 | [4] 0.02 | [5] -0.058

2 entries picked at random from the list so far, as already listed:
DCAF7 (UniProt P61962)
inactive: [1] 0.003 | [2] -0.152 | [3] 0.047 | [4] 0.016 | [5] 0

CT45A5 (UniProt P0DMU8)
inactive: [1] 0.053 | [2] -0.162 | [3] -0.192 | [4] 0.114 | [5] 0

Following part:

CUSTOS (UniProt Q96C57)
inactive: [1] 0.03 | [2] 0.004 | [3] 0.049 | [4] -0.001 | [5] 0.005

CUL4A (UniProt Q13619)
inactive: [1] -0.011 | [2] 0.027 | [3] 0.029 | [4] -0.011 | [5] 0.011

CYB5R3 isoform 3 (UniProt P00387)
inactive: [1] 0.039 | [2] 0.041 | [3] 0.022 | [4] 0.004 | [5] -0.019

CTSA (UniProt P10619)
inactive: [1] 0.004 | [2] -0.063 | [3] -0.034 | [4] -0.018 | [5] 0.03

CYP51A1 (UniProt Q16850)
inactive: [1] -0.096 | [2] 0.055 | [3] -0.037 | [4] -0.01 | [5] -0.001

DAD1 (UniProt P61803)
inactive: [1] 0.088 | [2] -0.244 | [3] -0.321 | [4] 0.093 | [5] 0.094

CTBP1 (UniProt Q13363)
inactive: [1] 0.005 | [2] 0.036 | [3] 0.021 | [4] -0.027 | [5] 0.032

DCAF8 (UniProt Q5TAQ9)
inactive: [1] 0.023 | [2] -0.044 | [3] 0.035 | [4] -0.005 | [5] -0.011

DAGLB (UniProt Q8NCG7)
inactive: [1] 0.041 | [2] 0.028 | [3] 0.088 | [4] -0.027 | [5] 0.012

CT47A1 (UniProt Q5JQC4)
inactive: [1] -0.007 | [2] -0.07 | [3] -0.022 | [4] 0.123 | [5] 0.027

CTH (UniProt P32929)
inactive: [1] -0.024 | [2] 0.019 | [3] -0.006 | [4] -0.028 | [5] -0.006

DARS2 (UniProt Q6PI48)
inactive: [1] 0.007 | [2] -0.015 | [3] -0.036 | [4] 0.031 | [5] 0.036

CUTA isoform 2 (UniProt O60888)
inactive: [1] 0.099 | [2] 0.116 | [3] -0.289 | [4] -0.123 | [5] 0.015

DCAF13 (UniProt Q9NV06)
inactive: [1] 0.105 | [2] -0.221 | [3] -0.152 | [4] 0.128 | [5] 0

CUL2 isoform 2 (UniProt Q13617)
inactive: [1] -0.006 | [2] 0.035 | [3] 0.051 | [4] -0.016 | [5] -0.033

CTNNA1 isoform 2 (UniProt P35221)
inactive: [1] 0.016 | [2] 0.027 | [3] -0.008 | [4] -0.001 | [5] 0.003

DCAF15 (UniProt Q66K64)
inactive: [1] 0.016 | [2] 0.153 | [3] -0.065 | [4] 0.038 | [5] -0.063

DBR1 (UniProt Q9UK59)
inactive: [1] 0.023 | [2] 0 | [3] 0 | [4] 0.017 | [5] 0.057

CTCF (UniProt P49711)
inactive: [1] 0.097 | [2] -0.456 | [3] -0.177 | [4] 0.131 | [5] 0.016

DCAF16 (UniProt Q9NXF7)
inactive: [1] 0.06 | [2] 0.056 | [3] 0.079 | [4] 0.032 | [5] -0.032

DAB2 (UniProt P98082)
inactive: [1] -0.039 | [2] 0.051 | [3] 0.1 | [4] 0.121 | [5] 0.094

CUL5 (UniProt Q93034)
inactive: [1] 0.007 | [2] 0.046 | [3] 0.028 | [4] -0.004 | [5] 0.001

CSTF2T (UniProt Q9H0L4)
inactive: [1] 0.012 | [2] 0.037 | [3] 0.086 | [4] -0.016 | [5] 0

CYSTM1 (UniProt Q9H1C7)
inactive: [1] 0 | [2] -0.132 | [3] -0.121 | [4] 0.103 | [5] 0
